In all, about 31,000 sequences went through this assay and about 1,400 (4.5%) were called active.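 How the source made its calls: active means median seed-adjusted z-score above 1 or below -1; inactive means the rest.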 The list shows a part of the results.
Test: Novel Modifiers of Survival Motor Neuron (SMN) Protein: Gene Identification via Genome-wide siRNA Screen;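 further: luminescence tracks full-length SMN protein made from the SMN2 reporter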
Conditions: HEK293T SMN2-luciferase reporter, siRNA knockdown, 72 h; actives lie on both sides
Outline: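 Steps: spot 1 pmol siRNA, add Lipofectamine RNAiMax in serum-free DMEM, seed HEK293T SMN2–luciferase reporter cells; incubate 72 h at 37 °C; add ONE-Glo; normalize luminescence to control siRNA, log10, MAD. Candidates: |MAD| > 1.0.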

| Sequence | median seed-adjusted z-score |
| --- | --- |
| ACAAGGUGAUCAAACCUAATT against GFRA2 | inactive: 0.363 |
| CUACUGCUGGAGAAUCAAATT against GPR45 | inactive: 0.0287 |
| CAAUUUCAGCAGGCCCAAATT against RNF148 | inactive: 0.552 |
| CUAUCUCCCUGAUCCAGCATT against TRPM2 | inactive: 0.226 |
| GACUUGGAGUUUCAGGCAATT against XPC | inactive: -0.564 |
| CGGAAGGACAGACAAGUAATT against SIGLEC9 | inactive: 0 |
| GGAAGUAUUUGUCUCGAUATT against UBE2D1 | inactive: 0.508 |
| ACAACGAAGUUCUACAGAATT against PKIA | inactive: 0.533 |
| ACUCCAUGAUCAACCCUAUTT against GPR3 | inactive: 0 |
| CUACAUCCACAUCAAGAUATT against DNAJA3 | inactive: -0.0333 |
| CCCAAAGAGUGAACAGGUATT against ZNF232 | inactive: 0.39 |
| CCAAGAUCCUCUUCAAAGATT against PLCH2 | inactive: 0.593 |
| GACUCAACCUAGACGUGCATT against INHBB | inactive: -0.522 |
| GCAUCUGCUGUAUCGAUGATT against MCM4 | inactive: 0.0057 |
| GCUUUAUGACAGAACCGAATT against OPA1 | inactive: -0.182 |
| UAACCGAUUUGAUAUGAAUTT against ANKRA2 | active: 1.26 |
| CCGACUCAGUAACCCUGAATT against UTP6 | inactive: -0.253 |
| CGAGAUACGUUACGACGGATT against TFAP2D | inactive: 0 |
| CCGGAAAGCUUUCCAAGUATT against MMP12 | inactive: 0.0476 |
| CGACCUAAUCAUUCACAGUTT against CYP26C1 | inactive: -0.276 |
| CCAGCAUACUUACUUAUCUTT against ZNF420 | inactive: -0.5 |
| GCAUUUUACGAAUUCACCUTT against LATS2 | inactive: -0.245 |
| AGAUGAAUUAUGGAGGAUUTT against TCEB3C | inactive: 0.382 |
| CUACAUUCCGUGUUCAUAATT against ZNF552 | inactive: 0.437 |
| CAAGUGGAAUUGAUGCGAATT against PRC1 | inactive: -0.0195 |
| AAUUCGAGCUGGUGCCAUCTT against MYCL1 | inactive: 0.0658 |
| GGUCUACUGCACUCGGGAATT against SPINK6 | inactive: 0.275 |
| CAGCUACGGAAGAACCUGATT against PHF21A | inactive: 0.179 |
| AGAGAAGACCCAACAGUGATT against MEF2B | inactive: 0.263 |
| GGUAUUACUUUGCAAUCGATT against CACNA2D1 | inactive: -0.541 |

A second format for some results above:
CUACAUUCCGUGUUCAUAATT against ZNF552
  median seed-adjusted z-score: inactive: 0.437
CAAGUGGAAUUGAUGCGAATT against PRC1
  median seed-adjusted z-score: inactive: -0.0195
